From the M2OR odorant receptor database
Some of the results follow. The calls were merged from several studies; some rest on single wells.

Legend:
Conditions in all cases: stereoisomer not certain
O52I2 [1] = test system: T1, O52I2
T1 sequence (whole entry): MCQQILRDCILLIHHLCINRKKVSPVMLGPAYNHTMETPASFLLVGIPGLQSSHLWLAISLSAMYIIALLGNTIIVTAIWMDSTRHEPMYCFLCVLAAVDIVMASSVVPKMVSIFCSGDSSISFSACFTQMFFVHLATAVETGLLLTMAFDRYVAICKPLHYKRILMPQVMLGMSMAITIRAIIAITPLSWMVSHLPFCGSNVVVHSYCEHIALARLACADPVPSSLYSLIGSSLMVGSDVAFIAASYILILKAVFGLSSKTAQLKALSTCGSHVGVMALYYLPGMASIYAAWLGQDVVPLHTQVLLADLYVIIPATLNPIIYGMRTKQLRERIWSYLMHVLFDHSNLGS
Summary of the method: (§1)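 Values were gathered from published papers (main text and supplementary material), with extra details requested from the original authors when needed, and checked for typos and inconsistencies. Each receptor–molecule pair is called responsive (active) if the original authors judged the measured signal statistically different from baseline, and non-responsive (inactive) otherwise. Assay methods varied by source, often transient mammalian cell-line luciferase assays. Recorded details include cell line, G-protein, co-transfected protein and tags.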

O52I2 [2] = test system: T2, O52I2; remark: listed apart in the source
T2 sequence (whole entry): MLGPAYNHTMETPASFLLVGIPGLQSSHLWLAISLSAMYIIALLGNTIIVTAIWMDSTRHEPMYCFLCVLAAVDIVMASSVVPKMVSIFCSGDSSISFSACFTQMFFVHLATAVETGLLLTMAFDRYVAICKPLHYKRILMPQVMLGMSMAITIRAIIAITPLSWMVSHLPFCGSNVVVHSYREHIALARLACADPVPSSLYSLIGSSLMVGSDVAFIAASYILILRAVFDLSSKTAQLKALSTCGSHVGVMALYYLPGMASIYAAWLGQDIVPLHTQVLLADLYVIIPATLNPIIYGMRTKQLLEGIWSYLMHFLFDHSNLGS
Summary of the method: as §1

O52J3 = test system: T3, O52J3
T3 sequence (whole entry): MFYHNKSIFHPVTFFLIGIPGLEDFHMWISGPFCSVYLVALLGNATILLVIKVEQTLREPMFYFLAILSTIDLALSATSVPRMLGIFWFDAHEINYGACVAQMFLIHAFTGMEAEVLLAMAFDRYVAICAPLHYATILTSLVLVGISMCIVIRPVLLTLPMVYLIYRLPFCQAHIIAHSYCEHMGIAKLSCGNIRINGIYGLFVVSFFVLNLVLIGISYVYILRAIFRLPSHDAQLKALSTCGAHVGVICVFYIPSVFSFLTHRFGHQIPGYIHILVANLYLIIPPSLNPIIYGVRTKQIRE
Summary of the method: as §1

O52L1 = test system: T4, O52L1
T4 sequence (whole entry): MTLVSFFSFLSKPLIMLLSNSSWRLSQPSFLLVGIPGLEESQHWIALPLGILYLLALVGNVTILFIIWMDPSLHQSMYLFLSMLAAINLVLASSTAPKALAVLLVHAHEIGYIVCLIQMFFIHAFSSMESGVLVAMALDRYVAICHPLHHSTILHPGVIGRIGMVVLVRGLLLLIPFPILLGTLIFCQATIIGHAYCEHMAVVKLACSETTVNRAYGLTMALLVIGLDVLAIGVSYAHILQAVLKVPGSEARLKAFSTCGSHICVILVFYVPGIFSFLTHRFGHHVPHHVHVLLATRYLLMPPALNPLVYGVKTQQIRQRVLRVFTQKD
Summary of the method: as §1

O52L2 = test system: T5, O52L2
T5 sequence (whole entry): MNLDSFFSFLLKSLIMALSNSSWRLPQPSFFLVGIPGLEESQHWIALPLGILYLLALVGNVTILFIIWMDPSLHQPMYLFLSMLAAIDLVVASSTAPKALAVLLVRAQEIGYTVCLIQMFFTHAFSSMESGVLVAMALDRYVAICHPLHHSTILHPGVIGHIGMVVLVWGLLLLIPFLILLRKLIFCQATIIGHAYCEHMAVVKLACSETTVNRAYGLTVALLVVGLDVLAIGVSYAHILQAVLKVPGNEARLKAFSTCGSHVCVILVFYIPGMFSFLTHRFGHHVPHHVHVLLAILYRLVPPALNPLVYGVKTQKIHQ
Summary of the method: as §1

O52M1 = test system: T6, O52M1
T6 sequence (whole entry): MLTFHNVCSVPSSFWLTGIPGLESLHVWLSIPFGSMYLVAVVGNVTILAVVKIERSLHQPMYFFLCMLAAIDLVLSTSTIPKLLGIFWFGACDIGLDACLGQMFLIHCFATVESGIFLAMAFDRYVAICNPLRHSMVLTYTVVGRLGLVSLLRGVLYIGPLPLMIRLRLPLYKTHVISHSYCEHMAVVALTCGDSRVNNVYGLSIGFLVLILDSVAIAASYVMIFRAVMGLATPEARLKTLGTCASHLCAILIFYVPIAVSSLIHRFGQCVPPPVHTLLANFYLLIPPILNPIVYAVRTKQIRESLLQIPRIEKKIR
Summary of the method: as §1

O52N1 = test system: T7, O52N1
T7 sequence (whole entry): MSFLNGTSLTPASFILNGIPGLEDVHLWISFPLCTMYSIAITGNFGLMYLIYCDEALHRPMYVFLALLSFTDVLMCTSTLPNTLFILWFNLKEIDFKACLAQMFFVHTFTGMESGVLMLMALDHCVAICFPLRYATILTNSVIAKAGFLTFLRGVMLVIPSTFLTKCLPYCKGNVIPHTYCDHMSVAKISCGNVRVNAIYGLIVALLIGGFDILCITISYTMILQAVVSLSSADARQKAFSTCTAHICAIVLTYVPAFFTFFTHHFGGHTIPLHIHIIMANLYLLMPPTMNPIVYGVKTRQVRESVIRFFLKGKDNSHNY
Summary of the method: as §1

O52N2 = test system: T8, O52N2
T8 sequence (whole entry): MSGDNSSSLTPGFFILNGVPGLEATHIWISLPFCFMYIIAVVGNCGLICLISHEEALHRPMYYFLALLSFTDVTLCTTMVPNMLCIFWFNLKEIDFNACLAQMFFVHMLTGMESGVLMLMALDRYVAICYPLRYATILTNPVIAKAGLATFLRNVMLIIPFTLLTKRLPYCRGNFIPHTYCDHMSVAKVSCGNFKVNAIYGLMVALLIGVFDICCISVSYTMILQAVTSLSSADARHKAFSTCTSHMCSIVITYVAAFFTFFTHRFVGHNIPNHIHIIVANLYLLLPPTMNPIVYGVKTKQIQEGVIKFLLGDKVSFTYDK
Summary of the method: as §1

O52N4 = test system: T9, O52N4
T9 sequence (whole entry): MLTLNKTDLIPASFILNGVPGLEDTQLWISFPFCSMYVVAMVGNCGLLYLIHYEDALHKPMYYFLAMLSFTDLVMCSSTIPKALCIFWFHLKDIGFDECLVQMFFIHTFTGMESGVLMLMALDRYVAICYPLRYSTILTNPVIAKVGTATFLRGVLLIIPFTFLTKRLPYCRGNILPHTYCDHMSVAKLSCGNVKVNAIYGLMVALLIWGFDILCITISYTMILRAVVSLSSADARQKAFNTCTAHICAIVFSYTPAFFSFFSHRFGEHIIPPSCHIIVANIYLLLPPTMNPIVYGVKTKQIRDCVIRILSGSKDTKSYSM
Summary of the method: as §1

O52P1 = test system: T10, O52P1
T10 sequence (whole entry): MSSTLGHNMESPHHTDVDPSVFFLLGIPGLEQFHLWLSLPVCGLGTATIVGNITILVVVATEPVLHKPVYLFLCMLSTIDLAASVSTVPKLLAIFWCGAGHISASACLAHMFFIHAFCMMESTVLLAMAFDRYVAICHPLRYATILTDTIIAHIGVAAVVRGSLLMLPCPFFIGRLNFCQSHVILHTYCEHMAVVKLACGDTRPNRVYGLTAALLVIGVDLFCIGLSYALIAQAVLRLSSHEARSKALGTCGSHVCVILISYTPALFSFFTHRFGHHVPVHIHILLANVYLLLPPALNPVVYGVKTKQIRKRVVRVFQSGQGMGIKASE
Summary of the method: as §1

Measured: odorant receptor agonist call

CCC(C)=O
inactive: all assays above
